# In paper PMC6756898:
# By UniProt entry, the sequences of proteins in these tests, tags left out. Residues count along the entry.
# UniProt P01137, residues 30-390: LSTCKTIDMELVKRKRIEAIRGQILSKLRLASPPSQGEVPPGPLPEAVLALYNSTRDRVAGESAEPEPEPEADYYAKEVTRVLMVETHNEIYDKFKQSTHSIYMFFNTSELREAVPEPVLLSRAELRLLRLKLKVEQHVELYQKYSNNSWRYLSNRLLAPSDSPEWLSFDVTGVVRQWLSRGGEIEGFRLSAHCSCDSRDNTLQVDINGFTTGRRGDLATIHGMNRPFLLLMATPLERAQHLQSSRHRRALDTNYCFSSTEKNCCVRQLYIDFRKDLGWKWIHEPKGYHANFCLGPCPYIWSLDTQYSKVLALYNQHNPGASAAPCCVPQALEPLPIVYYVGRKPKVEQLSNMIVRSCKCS
# UniProt P42263, residues 29-894: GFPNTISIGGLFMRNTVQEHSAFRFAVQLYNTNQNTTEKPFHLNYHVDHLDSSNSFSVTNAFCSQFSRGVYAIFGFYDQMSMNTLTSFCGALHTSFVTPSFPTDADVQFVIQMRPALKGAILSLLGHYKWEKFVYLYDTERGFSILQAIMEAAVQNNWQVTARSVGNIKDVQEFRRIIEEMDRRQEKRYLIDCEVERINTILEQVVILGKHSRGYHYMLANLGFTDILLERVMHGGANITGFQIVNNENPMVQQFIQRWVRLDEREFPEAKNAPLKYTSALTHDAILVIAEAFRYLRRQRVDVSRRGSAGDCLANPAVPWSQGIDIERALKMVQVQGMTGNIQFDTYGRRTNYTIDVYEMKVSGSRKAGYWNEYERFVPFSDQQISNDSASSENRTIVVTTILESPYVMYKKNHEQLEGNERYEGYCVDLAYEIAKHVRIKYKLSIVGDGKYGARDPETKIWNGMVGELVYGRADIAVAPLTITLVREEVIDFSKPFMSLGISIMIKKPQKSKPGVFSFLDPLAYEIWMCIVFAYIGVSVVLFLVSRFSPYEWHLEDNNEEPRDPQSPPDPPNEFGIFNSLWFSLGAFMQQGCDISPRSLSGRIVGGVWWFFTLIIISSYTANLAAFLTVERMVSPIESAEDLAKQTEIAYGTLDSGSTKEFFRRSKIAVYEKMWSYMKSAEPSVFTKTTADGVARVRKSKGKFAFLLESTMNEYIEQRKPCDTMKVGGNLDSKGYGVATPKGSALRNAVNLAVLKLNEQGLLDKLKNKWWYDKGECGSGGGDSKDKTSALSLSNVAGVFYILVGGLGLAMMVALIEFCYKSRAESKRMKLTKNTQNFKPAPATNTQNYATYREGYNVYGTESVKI
# Results are given in words; binding and its absence hold for the method and conditions named. In cells and extracts the contact can be indirect. Some binding calls cover weakened binding; strength is not graded here.
# Biological target: TGF-β1 (human (endogenous in HCC827)) (UniProt P01137)
# Assay: co-IP; endogenous proteins in HCC827 cells; co-IP and Western blotting; which protein was precipitated is not told
substance,measurement,value
GRIA3 (from UniProt P42263 29-894),binding,binds
